Patent US7078203
Results are given in words; binding and its absence hold for the method and conditions named. For some of these results: Binding seen in cells or lysates may run through a third protein. Some entries that bind do so weakly or less than the wild type. For some of these results: Sequences can lack the tags named with a protein. One block for each substance: values may come before it.

Sequences of proteins named here, by UniProt entry; tags and fusion partners are left off. A change or cut given only in a name is not applied to a line headed by its entry. Residues count along the entry.
UniProt Q93034: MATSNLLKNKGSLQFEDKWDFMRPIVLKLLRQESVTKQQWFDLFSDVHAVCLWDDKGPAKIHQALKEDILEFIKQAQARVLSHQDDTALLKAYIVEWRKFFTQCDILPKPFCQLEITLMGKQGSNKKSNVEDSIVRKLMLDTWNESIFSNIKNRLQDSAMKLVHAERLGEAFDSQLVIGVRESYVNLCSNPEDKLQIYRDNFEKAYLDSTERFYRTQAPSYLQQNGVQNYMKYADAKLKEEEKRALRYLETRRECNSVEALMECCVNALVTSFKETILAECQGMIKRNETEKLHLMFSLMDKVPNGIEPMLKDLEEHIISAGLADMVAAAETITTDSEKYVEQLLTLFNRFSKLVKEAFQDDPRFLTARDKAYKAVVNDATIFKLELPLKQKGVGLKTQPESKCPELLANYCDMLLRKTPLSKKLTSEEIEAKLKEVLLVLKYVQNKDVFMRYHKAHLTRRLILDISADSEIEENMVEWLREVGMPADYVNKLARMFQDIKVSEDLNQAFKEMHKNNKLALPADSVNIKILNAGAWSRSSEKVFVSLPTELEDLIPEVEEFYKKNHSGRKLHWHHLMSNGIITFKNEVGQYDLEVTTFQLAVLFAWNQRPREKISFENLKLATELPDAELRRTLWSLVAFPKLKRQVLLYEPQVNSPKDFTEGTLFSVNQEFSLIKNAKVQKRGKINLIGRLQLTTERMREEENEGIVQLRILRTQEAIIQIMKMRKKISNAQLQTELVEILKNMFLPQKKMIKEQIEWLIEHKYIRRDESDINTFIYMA
UniProt Q8BZQ7, residues 15-837: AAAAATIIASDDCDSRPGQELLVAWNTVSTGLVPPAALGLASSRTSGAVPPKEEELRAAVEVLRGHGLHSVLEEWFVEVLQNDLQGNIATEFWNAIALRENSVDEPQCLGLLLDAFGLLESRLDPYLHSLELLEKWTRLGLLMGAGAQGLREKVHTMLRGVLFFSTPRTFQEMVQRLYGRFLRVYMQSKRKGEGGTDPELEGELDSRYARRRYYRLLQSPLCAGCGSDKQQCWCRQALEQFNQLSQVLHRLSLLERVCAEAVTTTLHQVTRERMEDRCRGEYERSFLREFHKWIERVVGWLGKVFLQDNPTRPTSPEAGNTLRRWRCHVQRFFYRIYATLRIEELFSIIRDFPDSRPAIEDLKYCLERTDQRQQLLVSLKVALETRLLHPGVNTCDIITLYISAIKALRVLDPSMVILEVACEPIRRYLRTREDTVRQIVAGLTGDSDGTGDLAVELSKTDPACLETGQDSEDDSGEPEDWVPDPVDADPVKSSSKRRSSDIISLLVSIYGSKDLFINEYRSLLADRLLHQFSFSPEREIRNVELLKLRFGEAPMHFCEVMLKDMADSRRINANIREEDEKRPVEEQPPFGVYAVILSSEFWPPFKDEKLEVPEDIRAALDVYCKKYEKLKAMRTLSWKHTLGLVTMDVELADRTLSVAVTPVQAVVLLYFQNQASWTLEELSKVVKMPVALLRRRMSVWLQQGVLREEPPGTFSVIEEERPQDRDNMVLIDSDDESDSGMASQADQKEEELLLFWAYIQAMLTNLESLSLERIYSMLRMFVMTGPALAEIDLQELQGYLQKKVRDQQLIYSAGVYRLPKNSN
UniProt Q13616: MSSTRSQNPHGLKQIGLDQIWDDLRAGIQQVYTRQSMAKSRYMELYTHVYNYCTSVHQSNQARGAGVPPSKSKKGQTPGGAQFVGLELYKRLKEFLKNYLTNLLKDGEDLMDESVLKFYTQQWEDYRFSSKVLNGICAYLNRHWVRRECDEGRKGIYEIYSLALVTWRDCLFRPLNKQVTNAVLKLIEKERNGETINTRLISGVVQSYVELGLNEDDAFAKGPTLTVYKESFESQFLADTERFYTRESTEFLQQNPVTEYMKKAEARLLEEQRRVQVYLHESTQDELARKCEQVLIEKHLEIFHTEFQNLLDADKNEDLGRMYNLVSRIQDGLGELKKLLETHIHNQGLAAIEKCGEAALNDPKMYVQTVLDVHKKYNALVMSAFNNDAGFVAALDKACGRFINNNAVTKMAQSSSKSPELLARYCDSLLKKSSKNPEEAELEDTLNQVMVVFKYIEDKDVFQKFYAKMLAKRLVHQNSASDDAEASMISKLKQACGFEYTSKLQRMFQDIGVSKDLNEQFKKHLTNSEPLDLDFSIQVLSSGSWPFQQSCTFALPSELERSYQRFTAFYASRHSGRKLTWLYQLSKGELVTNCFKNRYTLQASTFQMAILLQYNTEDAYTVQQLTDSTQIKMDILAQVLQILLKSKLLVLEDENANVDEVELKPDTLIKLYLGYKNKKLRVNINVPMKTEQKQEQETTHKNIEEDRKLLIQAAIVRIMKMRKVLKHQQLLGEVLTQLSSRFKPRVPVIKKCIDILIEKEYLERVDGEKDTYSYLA
UniProt Q3TCH7: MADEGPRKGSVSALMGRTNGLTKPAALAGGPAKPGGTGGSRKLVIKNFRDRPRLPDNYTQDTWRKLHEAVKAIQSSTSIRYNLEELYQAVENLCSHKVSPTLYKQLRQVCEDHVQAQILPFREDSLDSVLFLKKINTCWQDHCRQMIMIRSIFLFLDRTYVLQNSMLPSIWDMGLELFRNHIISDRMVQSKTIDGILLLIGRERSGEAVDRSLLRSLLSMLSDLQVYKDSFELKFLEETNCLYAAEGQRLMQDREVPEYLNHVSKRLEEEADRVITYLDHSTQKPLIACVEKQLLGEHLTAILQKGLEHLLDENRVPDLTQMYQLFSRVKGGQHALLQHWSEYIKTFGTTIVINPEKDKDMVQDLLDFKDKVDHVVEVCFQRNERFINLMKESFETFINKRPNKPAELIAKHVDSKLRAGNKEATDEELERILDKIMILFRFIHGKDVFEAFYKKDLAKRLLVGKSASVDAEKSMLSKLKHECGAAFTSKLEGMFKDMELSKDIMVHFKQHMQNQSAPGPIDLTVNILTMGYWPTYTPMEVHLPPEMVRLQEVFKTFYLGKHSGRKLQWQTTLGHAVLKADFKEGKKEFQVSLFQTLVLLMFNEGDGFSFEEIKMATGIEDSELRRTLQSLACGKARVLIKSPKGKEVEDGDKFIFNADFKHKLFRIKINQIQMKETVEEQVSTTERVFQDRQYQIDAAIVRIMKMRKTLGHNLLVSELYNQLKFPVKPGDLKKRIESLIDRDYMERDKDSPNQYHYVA
UniProt Q13617: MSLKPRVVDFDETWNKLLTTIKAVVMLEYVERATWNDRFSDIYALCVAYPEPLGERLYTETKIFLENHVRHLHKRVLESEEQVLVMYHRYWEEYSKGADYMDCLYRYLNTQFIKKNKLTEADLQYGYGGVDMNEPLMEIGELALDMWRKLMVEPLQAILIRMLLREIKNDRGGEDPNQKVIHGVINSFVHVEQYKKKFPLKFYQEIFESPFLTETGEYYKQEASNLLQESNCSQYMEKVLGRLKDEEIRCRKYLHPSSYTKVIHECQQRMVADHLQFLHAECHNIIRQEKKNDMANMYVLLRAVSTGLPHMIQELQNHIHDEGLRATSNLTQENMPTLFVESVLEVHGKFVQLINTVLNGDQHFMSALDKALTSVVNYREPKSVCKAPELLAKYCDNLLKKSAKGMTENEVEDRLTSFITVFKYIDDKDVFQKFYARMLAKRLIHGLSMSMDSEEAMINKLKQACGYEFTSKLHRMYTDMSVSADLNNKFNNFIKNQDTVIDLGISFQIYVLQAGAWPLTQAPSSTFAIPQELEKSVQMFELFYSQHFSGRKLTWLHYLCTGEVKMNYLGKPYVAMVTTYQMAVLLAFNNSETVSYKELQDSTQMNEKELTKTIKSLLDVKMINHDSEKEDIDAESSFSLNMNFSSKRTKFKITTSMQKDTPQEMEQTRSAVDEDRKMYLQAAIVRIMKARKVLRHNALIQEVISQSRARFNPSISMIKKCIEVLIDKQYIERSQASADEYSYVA
UniProt P04386: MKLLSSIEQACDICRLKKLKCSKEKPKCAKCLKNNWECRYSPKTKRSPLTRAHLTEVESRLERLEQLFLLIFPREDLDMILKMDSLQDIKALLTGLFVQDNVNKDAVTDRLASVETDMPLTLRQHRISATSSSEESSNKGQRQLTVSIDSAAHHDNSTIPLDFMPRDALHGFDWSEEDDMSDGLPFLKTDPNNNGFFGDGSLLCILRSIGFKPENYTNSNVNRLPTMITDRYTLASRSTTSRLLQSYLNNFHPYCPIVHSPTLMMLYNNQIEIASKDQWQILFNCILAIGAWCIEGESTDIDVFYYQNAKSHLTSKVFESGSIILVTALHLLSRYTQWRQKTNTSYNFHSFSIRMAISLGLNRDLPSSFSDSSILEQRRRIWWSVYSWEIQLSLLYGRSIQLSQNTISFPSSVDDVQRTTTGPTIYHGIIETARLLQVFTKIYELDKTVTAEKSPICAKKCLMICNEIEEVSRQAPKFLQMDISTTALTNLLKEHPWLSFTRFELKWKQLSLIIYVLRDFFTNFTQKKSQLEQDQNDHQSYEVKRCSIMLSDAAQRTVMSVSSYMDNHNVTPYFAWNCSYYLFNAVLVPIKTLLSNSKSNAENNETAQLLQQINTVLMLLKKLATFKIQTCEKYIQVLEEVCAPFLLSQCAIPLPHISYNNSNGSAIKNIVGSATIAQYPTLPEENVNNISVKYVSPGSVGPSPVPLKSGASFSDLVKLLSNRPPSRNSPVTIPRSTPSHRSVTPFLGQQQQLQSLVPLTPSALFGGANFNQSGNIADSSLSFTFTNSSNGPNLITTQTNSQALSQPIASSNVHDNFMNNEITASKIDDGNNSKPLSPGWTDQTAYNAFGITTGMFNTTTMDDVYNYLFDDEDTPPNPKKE
UniProt Q9UBF6: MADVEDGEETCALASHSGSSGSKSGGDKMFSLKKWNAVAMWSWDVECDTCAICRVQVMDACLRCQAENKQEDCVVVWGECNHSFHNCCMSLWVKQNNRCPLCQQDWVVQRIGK
UniProt Q9NYG5: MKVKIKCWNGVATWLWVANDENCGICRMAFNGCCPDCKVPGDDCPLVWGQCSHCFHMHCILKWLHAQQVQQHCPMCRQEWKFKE

How the values were obtained:
[1] = target: myc-epitope tagged cullin 5 (UniProt Q93034); experiment: co-immunoprecipitation with anti-HA from transfected cells
[2] = target: myc-epitope tagged cullin 5 (UniProt Q93034); experiment: co-immunoprecipitation from [35S]-methionine labelled transfected cells
[3] = target: myc-epitope tagged APC2 (mouse) (UniProt Q8BZQ7); experiment: reciprocal co-immunoprecipitation from transfected HeLa cells
[4] = target: human CUL1 (untagged: transfected, in vitro translated or endogenous) (human) (UniProt Q13616); experiment: co-immunoprecipitation from [35S]-methionine labelled transfected cells
[5] = target: myc-epitope tagged mouse cullin 4A (mouse) (UniProt Q3TCH7); experiment: as above
[6] = target: myc-epitope tagged cullin 2 (UniProt Q13617); experiment: as above
[7] = target: myc-epitope tagged cullin 5 (UniProt Q93034); experiment: immunoprecipitation with anti-myc from transfected cells
[8] = target: human CUL1 (untagged: transfected, in vitro translated or endogenous) (human) (UniProt Q13616); experiment: immunoprecipitation with anti-CUL1 from transfected cells
[9] = target: human CUL1 (untagged: transfected, in vitro translated or endogenous) (human) (UniProt Q13616); experiment: co-immunoprecipitation with anti-HA from [35S]-methionine labelled transfected cells
[10] = target: myc-epitope tagged mouse cullin 4A (mouse) (UniProt Q3TCH7); experiment: as above
[11] = target: myc-epitope tagged cullin 2 (UniProt Q13617); experiment: as above
[12] = target: myc-epitope tagged cullin 5 (UniProt Q93034); experiment: as above
[13] = target: myc-epitope tagged mouse cullin 4A (mouse) (UniProt Q3TCH7); experiment: reciprocal co-immunoprecipitation with anti-myc
[14] = target: myc-epitope tagged cullin 2 (UniProt Q13617); experiment: reciprocal co-immunoprecipitation with anti-myc
[15] = target: T1, ScAPC2 fused to the GAL4 activation domain (yeast; S. cerevisiae) (UniProt Q12440); experiment: yeast two-hybrid, activation of the histidine reporter gene; ScROC1 as DNA binding domain fusion
T1 sequence (looked up): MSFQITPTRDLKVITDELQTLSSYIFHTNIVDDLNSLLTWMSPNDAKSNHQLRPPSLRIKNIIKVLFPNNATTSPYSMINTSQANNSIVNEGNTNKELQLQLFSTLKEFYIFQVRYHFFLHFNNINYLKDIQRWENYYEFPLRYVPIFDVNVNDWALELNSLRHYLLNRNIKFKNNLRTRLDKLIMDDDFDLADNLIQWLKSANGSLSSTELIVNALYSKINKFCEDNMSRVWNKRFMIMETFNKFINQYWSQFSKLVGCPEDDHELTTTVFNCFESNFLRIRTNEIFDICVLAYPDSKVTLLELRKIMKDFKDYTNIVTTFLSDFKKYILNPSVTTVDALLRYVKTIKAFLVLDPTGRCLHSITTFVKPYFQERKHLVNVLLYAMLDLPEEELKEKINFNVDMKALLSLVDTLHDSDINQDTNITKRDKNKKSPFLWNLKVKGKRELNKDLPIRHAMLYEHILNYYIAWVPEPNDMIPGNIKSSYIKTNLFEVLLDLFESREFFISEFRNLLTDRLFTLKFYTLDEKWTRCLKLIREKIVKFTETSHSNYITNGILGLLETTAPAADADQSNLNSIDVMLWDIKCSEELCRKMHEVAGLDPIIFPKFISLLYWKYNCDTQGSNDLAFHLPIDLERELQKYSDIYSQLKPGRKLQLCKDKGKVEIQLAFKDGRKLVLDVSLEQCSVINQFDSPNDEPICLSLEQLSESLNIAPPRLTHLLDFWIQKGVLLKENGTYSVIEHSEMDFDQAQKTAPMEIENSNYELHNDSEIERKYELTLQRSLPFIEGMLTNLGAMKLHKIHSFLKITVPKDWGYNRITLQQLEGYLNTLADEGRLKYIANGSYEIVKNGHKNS

[16] = target: T1, ScAPC2 fused to the GAL4 activation domain (yeast; S. cerevisiae); experiment: yeast two-hybrid in HF7c cells
[17] = target: cullin 5 fused to the Gal4 DNA-binding domain (yeast) (UniProt P04386+Q93034); experiment: yeast two-hybrid
[18] = target: mouse APC2 fused to the Gal4 DNA-binding domain (yeast; mouse) (UniProt P04386+Q8BZQ7); experiment: yeast two-hybrid, -LWH with 5 mM 3-AT
[19] = target: cullin 2 fused to the Gal4 DNA-binding domain (yeast) (UniProt P04386+Q13617); experiment: yeast two-hybrid
[20] = target: human CUL1 fused to the Gal4 DNA-binding domain (yeast; human) (UniProt P04386+Q13616); experiment: yeast two-hybrid
[21] = target: full-length mouse cullin 4A fused to the Gal4 DNA-binding domain (yeast; mouse) (UniProt P04386+Q3TCH7); experiment: yeast two-hybrid

Substance: HA tagged human ROC2 (from UniProt Q9UBF6 29-113)
binding [4]: binds | binding [5]: binds | binding [6]: binds | binding [2]: binds | binding [7]: binds | binding [8]: binds | binding [9]: binds | binding [10]: binds | binding [11]: binds | binding [12]: binds | binding [13]: binds | binding [14]: binds

Substance: full length human APC11 fused to the Gal4 DNA activation domain (from UniProt Q9NYG5 1-84)
binding [17]: binds | binding [18]: binds

Substance: full length human ROC2 fused to the Gal4 DNA activation domain (from UniProt Q9UBF6 29-113)
binding [19]: binds | binding [20]: binds | binding [21]: binds

More lines, now with the values ahead:

binding [1]: binds | binding [2]: binds | binding [3]: binds
Substance: HA tagged human APC11 (from UniProt Q9NYG5 1-84)

binding [15]: binds | binding [16]: binds
Substance: ScROC1 fused to the GAL4 DNA binding domain (pGBT8-ScROC1) (from UniProt P04386 1-147; Q08273 1-121)
